The list shows a part of the results. The main result of the screen is listed elsewhere. These columns were measured beside it and carry no call. Most of these compounds were active or inconclusive in the main read-out, so they are no random draw. The note in brackets gives the kind of curve behind each potency; many fits are weak.
Assay: qHTS Assay to Find Inhibitors of Chronic Active B-Cell Receptor Signaling
Conditions: ABC-DLBCL IkBa-CBG/CBR reporter, luminescence ratio (green luciferase fused to IkBa over red control in TMD8 lymphoma cells), 4 h
Procedure, shortened: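 TMD8 ABC-DLBCL cells carrying doxycycline-inducible green luciferase fused to IkappaBalpha plus unfused red luciferase were exposed to compounds (up to 46 uM) for 4 hrs at 37C. Activity came from the overlap-corrected green/red luminescence ratio.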

[1] = measured here: CBR red luminescence, cell number
[2] = measured here: IkBa-CBG green luminescence

O=C(CCN1CCN(c2ccccc2)CC1)NNC(=O)Cc1ccc(Br)cc1
AC50 [1]: 2.59 µM [rising, single point]

Cc1nn(C)cc1/C=N\NC(=O)c1ccc2c(c1)c(C)c(C)n2Cc1ccccc1
AC50 [1]: 13 µM [rising, partial curve]

CCN(CC)C(c1ccc(C)cc1)c1nnnn1C1CCCCC1 (stereo unspecified)
AC50 [1]: 0.461 µM [falling, partial curve, poor fit]

S=C1Nc2ccccc2Sc2ccc(Cl)cc21
AC50 [1]: 10.3 µM [rising, partial curve, poor fit]

Oc1cccc(/C=N/Nc2cccc3cccnc23)c1
AC50 [1]: 0.562 µM [rising, full curve, poor fit]

Cc1ccc2cc(NC(=O)c3ccccc3C)ccc2n1
AC50 [1]: 11.2 µM [falling, partial curve, poor fit]

CCc1ccc(-c2nn(-c3ccccc3)cc2C2SCC(=O)N2Cc2ccco2)cc1 (stereo unspecified)
AC50 [1]: 20.6 µM [falling, single point]
AC50 [2]: 25.9 µM [rising, partial curve, poor fit]

CCOCCCNCc1cccc(OCc2ccc(F)cc2)c1
AC50 [1]: 2.31 µM [rising, partial curve, poor fit]

COc1ccc(-c2cn3cccnc3n2)cc1NC(=O)c1ccc(Br)o1
AC50 [1]: 35.5 µM [falling, single point]

CCNc1c(C(=O)O)ccc2c1C(=O)c1ccccc1C2=O
AC50 [1]: 0.082 µM [rising, full curve, poor fit]

COc1ccccc1OCC(=O)Nc1c2c(nn1-c1ccc(F)cc1)CS(=O)(=O)C2
AC50 [1]: 5.62 µM [rising, single point]

CCOCCCNC(=S)N1CCCN(c2nc3cc(C)c(C)cc3cc2C#N)CC1
AC50 [1]: 35.5 µM [falling, single point]

COc1cc(OC)c(OC)cc1CNC(=O)c1cc(=O)c2ccccc2o1
AC50 [1]: 17.8 µM [rising, single point]

c1ccc2c(CSc3ncnc4nc[nH]c34)cccc2c1
AC50 [1]: 7.08 µM [rising, partial curve]
AC50 [2]: 10 µM [falling, partial curve]

CCSc1cc(C)nc2c(-c3ccccc3)cnn12
AC50 [1]: 15.8 µM [falling, single point]

O=C(COC(=O)c1cc(S(=O)(=O)N2CCOCC2)c(Cl)cc1Cl)c1ccc[nH]1
AC50 [1]: 25.9 µM [rising, single point]

CCOC(=O)/C(=N\Nc1ccc(Cl)cc1)c1csc(Nc2ccccc2)n1
AC50 [1]: 14.6 µM [rising, partial curve, poor fit]

O=C(C1CCN(S(=O)(=O)c2ccccc2)CC1)N1CCCCCC1
AC50 [1]: 3.55 µM [falling, partial curve, poor fit]

C#C[C@]1(O)CC[C@H]2[C@@H]3CCc4cc(O)ccc4[C@H]3CC[C@@]21C
AC50 [2]: 11.6 µM [falling, partial curve]

Cc1ccc(NCc2nnc(SCC(=O)Nc3cccc(O)c3)n2CC2CCCO2)c(C)c1 (stereo unspecified)
AC50 [1]: 8.91 µM [falling, partial curve, poor fit]

COc1ccc(C2CC(=O)N(C)c3ccccc3S2)cc1OC (stereo unspecified)
AC50 [1]: 35.5 µM [falling, single point]
AC50 [2]: 12.6 µM [falling, single point]

COc1ccc(CCCC(=O)Nc2ccccc2F)cc1
AC50 [1]: 4.61 µM [falling, full curve]

Cc1ccccc1-c1nn(-c2ccc(F)cc2F)cc1CNCCCN(C)C
AC50 [1]: 20 µM [falling, partial curve, poor fit]

COC(=O)c1c(C)[nH]c(C(=O)CSc2ccc(Cl)cc2)c1C
AC50 [1]: 3.66 µM [rising, partial curve, poor fit]

Cc1noc(NS(=O)(=O)c2ccc(N/C=C/C(=O)c3ccc4c(c3)OCO4)cc2)c1C
AC50 [1]: 35.5 µM [falling, single point]

CCc1ccc2[nH]c(=O)c(C(c3nnnn3CCOC)N3CCN(c4ccccc4F)CC3)cc2c1 (stereo unspecified)
AC50 [1]: 2.31 µM [rising, partial curve, poor fit]

CC1(C)Cc2c(C#N)c(SCCOc3ccccc3)nc(N3CCOCC3)c2CO1
AC50 [1]: 0.58 µM [falling, partial curve, poor fit]

O=C(CSc1cnc2ccccc2n1)c1ccc(F)cc1
AC50 [1]: 14.6 µM [falling, single point]

Clc1ccc2c(NCc3ccccn3)ncnc2c1
AC50 [1]: 0.82 µM [falling, full curve]

CCOc1ccc(OCC(=O)Nc2ccc(OC)cc2)cc1
AC50 [1]: 5.8 µM [rising, full curve, poor fit]

CC(=O)NC(CC(=O)NNC(=O)C(C)Oc1ccccc1F)c1ccccc1 (stereo unspecified)
AC50 [1]: 0.731 µM [rising, full curve, poor fit]

CN(C)S(=O)(=O)c1cccc(C(=O)NCC2CCCO2)c1 (stereo unspecified)
AC50 [1]: 10.3 µM [rising, partial curve, poor fit]

COc1ccc(NC(=O)COC(=O)c2c3c(nc4ccccc24)CCCC3)cc1Cl
AC50 [1]: 32.6 µM [falling, partial curve, poor fit]

COc1ccc(COC(=O)c2n[nH]c3ccccc23)cc1F
AC50 [1]: 0.651 µM [rising, full curve, poor fit]

COC(=O)C1CCN(C(c2cccs2)c2sc3nc(C)nn3c2O)CC1 (stereo unspecified)
AC50 [1]: 13 µM [rising, partial curve]

C/C(=N\NC(=O)c1cccc(O)c1)c1ccc(NC(=O)Cc2ccccc2)cc1
AC50 [1]: 1.26 µM [falling, full curve, poor fit]

N#CCC(=O)Nc1ccc(C(=O)OCC(=O)Nc2cccc(C(F)(F)F)c2)cc1
AC50 [1]: 35.5 µM [falling, single point]

Nc1ncnc2c1C(c1ccccc1)c1c(ccc3ccccc13)O2 (stereo unspecified)
AC50 [1]: 20.6 µM [falling, single point]

Cc1cc(NC(=O)CSc2nnc3ccc(-c4ccc(F)cc4)nn23)no1
AC50 [1]: 20.6 µM [rising, partial curve, poor fit]

O=c1c2cc(-c3ccccc3)sc2nc2n1CCC2
AC50 [1]: 2.24 µM [falling, partial curve, poor fit]

CC(C)c1ccc(NC(=O)C(c2ccccc2)N2CCOCC2)cc1 (stereo unspecified)
AC50 [1]: 10 µM [rising, partial curve, poor fit]

CCNC(=O)N1CCC(c2nc3ccccc3s2)CC1
AC50 [1]: 0.1 µM [rising, full curve, poor fit]

O=C(NCC(=O)N1CCCC(C(F)(F)F)C1)c1ccc(Oc2ccccc2)cc1 (stereo unspecified)
AC50 [1]: 11.2 µM [rising, partial curve]
AC50 [2]: 7.08 µM [falling, partial curve]

Cc1cc(C)c(S(=O)(=O)c2ccccc2)c(OC(=O)c2c(Cl)cc(Cl)cc2Cl)n1
AC50 [1]: 3.16 µM [rising, partial curve]

CCOc1ccc(/C(O)=C2\C(=O)C(=O)N(c3ccc(OC)cc3)C2c2ccccc2[N+](=O)[O-])cc1 (stereo unspecified)
AC50 [1]: 8.91 µM [falling, partial curve, poor fit]

O=C(O)CCNc1ccc(NCCC(=O)O)c2c1C(=O)c1ccccc1C2=O
AC50 [1]: 10 µM [falling, partial curve]

C[C@H](CO)N1C[C@H](C)[C@@H](CN(C)C(=O)Nc2ccccc2)Oc2c(NS(=O)(=O)c3cn(C)cn3)cccc2C1=O
AC50 [1]: 5.8 µM [rising, full curve]

Clc1cccc(Nc2ncnc3ccc(Br)cc23)c1
AC50 [1]: 12.6 µM [falling, partial curve]

Cc1nn(C)cc1S(=O)(=O)N1CCN(c2ccccc2F)CC1
AC50 [1]: 5.62 µM [falling, full curve, poor fit]

CCc1cccc(NC(=O)c2ccc(Cn3nc(C)cc3C)o2)c1
AC50 [1]: 32.6 µM [rising, partial curve, poor fit]

CCOC(=O)Nc1ccc2c(COC(=O)CNS(=O)(=O)c3ccc(NC(C)=O)cc3)cc(=O)oc2c1
AC50 [1]: 7.94 µM [rising, partial curve]

O=C(Nc1nnc(-c2ccccc2SCc2ccccc2)s1)Nc1ccccc1F
AC50 [1]: 0.631 µM [rising, full curve, poor fit]

N/C(=N\OC(=O)CC1CCCCC1)c1ccc(Br)cc1
AC50 [1]: 7.08 µM [rising, partial curve]

Cc1cn(CCC(=O)Nc2ccc(N3CCOCC3)cc2)c2ccccc12
AC50 [1]: 28.2 µM [rising, single point]

COc1ccc(-n2c(C)nn(CCOc3ccccc3)c2=O)cc1
AC50 [1]: 17.8 µM [rising, partial curve, poor fit]

O=C(N/N=C/c1c(F)c(F)c(F)c(F)c1F)c1cc(-c2ccccc2)nc2ccccc12
AC50 [1]: 35.5 µM [rising, single point]

CC1CCN(c2cc(N3CCOCC3)c([N+](=O)[O-])cc2F)CC1
AC50 [1]: 2.51 µM [rising, full curve]

CC(C)(C)C(=O)CSc1nc2ccsc2c(=O)n1Cc1ccccc1F
AC50 [1]: 35.5 µM [rising, single point]

CCc1cccc(C)c1N1C(=O)CC(C)(C)CC1=O
AC50 [1]: 5.62 µM [falling, single point]

N=C1/C(=C\c2ccc(OC(=O)c3ccc(F)cc3)cc2)C(=O)N=C2SC(N3CCOCC3)=NN12
AC50 [1]: 35.5 µM [falling, single point]

CCOC(=O)[C@H]1[C@H]2COc3ccc(Cl)cc3[C@@H]2N2C(=O)CN(C)C(=O)[C@@]12C
AC50 [1]: 0.731 µM [rising, full curve, poor fit]

O=S1(=O)CCN(Cc2ccccn2)CC1
AC50 [1]: 6.31 µM [rising, full curve, poor fit]
